The list shows a part of the results. Residues, ends and D or L forms follow the SMILES beside them. *: point of attachment. Cbz = O=C(OCc1ccccc1)*

Amino acid sequences for entries named in this document (tags omitted). A change or cut given only in a name is not applied to a line headed by its entry.
UniProt Q9P2D0: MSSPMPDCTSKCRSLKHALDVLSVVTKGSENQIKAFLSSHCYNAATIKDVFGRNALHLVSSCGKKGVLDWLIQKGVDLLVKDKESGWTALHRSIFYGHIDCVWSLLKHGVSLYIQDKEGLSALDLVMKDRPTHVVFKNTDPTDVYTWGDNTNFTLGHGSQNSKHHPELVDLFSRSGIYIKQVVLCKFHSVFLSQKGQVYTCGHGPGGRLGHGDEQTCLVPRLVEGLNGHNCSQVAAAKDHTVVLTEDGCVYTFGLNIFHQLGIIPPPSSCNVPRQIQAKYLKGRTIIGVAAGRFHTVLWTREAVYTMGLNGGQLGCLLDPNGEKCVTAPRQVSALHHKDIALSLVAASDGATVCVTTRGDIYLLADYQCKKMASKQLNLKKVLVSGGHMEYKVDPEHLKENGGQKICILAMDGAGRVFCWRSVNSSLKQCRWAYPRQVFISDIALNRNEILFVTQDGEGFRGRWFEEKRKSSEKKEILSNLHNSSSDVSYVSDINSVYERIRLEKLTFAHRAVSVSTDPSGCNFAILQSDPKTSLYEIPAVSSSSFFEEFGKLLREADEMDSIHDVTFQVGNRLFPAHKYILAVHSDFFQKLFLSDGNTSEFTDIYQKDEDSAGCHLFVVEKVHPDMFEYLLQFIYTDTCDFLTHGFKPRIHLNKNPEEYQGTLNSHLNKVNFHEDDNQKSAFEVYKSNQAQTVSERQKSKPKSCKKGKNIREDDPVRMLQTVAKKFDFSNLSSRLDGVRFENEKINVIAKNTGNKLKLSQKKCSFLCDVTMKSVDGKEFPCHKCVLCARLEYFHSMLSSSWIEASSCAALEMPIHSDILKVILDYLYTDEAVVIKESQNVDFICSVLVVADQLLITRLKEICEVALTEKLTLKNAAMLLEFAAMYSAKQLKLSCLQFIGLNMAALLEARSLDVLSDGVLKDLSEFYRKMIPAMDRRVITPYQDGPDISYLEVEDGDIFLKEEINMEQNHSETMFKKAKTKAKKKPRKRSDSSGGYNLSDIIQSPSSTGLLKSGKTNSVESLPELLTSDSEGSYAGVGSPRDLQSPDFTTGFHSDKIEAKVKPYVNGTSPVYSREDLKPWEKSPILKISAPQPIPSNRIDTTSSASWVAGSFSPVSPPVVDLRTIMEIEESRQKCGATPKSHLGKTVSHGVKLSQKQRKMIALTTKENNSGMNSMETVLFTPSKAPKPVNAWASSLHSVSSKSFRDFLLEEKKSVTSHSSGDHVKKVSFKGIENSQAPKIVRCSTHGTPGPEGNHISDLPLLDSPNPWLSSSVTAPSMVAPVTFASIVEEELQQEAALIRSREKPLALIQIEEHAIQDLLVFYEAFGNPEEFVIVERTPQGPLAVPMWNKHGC
UniProt Q9UJC3, whole entry, looked up: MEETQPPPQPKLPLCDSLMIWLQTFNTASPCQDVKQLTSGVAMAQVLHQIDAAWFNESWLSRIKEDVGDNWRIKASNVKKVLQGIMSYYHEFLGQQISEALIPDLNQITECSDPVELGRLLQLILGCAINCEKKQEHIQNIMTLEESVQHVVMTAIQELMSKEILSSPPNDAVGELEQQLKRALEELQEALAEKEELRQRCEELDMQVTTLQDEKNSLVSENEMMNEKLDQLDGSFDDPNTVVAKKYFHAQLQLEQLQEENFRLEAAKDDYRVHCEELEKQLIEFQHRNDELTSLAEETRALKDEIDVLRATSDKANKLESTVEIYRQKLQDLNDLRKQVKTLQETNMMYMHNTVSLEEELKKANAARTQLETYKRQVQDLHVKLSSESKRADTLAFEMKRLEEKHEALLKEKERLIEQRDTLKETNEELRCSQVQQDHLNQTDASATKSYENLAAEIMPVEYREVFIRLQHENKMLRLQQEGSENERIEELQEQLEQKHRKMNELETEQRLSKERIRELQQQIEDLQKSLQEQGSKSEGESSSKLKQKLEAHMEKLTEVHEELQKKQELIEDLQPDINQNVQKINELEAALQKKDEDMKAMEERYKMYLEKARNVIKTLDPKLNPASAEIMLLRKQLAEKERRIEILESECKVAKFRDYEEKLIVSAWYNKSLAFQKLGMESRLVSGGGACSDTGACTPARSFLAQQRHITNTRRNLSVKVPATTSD
UniProt Q96EW2: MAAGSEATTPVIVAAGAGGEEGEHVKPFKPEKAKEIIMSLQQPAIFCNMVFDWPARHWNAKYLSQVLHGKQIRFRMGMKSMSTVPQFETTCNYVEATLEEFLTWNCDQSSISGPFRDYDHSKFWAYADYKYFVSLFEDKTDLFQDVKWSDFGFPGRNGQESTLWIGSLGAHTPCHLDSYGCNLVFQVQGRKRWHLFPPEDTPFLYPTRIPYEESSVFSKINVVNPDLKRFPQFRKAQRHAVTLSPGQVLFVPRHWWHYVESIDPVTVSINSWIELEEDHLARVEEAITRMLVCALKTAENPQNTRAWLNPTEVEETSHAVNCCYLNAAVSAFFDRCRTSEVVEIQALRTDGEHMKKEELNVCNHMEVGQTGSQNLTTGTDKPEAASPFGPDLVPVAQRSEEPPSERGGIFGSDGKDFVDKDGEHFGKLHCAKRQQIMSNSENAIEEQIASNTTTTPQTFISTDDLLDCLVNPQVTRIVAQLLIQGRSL
UniProt Q8TCT9: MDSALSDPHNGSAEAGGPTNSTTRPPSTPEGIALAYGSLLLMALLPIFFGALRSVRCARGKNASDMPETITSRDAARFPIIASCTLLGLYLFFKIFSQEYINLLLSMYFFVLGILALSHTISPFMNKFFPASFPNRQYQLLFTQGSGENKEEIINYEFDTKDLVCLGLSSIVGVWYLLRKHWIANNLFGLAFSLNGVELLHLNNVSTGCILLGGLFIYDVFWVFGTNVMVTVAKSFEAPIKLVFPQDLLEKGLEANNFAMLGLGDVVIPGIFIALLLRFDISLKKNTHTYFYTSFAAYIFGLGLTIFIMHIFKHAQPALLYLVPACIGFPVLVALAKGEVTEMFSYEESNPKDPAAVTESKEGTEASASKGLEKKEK
UniProt H0YH80: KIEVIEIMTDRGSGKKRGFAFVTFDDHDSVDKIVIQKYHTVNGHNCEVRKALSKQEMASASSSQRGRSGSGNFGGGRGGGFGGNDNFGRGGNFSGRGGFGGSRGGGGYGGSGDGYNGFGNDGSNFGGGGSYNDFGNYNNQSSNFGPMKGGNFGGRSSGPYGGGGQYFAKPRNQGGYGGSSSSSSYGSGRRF
UniProt P13747, whole entry, looked up: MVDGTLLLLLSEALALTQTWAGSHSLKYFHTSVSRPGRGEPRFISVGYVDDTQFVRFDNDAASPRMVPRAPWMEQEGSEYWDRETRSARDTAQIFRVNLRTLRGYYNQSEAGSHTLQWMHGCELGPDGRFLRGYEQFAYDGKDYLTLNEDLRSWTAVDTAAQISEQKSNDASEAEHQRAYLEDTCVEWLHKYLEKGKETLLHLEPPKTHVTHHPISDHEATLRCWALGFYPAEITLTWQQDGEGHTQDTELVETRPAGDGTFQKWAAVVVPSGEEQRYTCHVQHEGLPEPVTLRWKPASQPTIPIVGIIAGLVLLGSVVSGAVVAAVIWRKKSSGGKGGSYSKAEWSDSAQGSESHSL
UniProt Q9NSB8: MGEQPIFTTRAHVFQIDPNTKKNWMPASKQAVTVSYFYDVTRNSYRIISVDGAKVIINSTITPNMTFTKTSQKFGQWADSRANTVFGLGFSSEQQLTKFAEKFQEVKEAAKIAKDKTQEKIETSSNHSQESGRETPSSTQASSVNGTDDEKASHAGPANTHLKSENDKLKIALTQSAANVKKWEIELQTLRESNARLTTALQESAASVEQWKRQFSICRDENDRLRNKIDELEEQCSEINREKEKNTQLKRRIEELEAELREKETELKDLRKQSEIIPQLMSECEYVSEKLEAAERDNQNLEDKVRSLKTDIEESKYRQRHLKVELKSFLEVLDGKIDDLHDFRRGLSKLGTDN
UniProt P30939: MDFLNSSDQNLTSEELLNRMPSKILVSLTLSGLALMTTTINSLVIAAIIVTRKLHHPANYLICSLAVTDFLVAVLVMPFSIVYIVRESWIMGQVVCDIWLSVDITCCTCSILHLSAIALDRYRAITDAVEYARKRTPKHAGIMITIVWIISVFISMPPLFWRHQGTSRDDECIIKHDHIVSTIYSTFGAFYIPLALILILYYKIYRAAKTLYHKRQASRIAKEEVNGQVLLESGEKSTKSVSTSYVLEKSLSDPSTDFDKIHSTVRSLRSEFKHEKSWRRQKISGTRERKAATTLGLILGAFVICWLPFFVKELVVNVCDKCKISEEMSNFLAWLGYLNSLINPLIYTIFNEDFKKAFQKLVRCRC
UniProt Q9NQG7: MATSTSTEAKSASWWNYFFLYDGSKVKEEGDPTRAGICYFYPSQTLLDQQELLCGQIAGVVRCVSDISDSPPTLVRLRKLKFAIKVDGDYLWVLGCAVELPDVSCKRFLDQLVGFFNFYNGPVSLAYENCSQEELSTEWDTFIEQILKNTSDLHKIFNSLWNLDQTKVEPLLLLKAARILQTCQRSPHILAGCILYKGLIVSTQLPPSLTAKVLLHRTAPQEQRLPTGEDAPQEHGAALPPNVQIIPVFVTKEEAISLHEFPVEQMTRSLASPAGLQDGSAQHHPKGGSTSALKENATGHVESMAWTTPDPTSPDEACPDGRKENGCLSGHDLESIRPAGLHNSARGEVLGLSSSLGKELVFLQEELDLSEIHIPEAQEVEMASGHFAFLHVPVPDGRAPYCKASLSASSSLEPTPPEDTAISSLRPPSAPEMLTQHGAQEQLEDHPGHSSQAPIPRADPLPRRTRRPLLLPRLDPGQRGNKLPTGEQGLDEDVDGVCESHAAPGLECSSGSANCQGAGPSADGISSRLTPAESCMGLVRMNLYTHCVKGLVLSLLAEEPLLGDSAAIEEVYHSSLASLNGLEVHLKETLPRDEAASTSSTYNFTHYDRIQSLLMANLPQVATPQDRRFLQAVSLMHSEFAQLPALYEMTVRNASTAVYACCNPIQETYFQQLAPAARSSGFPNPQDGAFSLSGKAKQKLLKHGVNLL
UniProt Q9Y241: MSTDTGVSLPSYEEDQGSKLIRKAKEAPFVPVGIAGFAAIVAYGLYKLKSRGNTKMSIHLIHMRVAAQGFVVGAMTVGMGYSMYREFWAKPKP
UniProt P41134: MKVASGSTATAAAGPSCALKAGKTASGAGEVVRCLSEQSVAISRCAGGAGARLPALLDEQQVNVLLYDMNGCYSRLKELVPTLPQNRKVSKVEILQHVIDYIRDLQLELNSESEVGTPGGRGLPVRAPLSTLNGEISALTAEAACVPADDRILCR
UniProt Q9UGU5: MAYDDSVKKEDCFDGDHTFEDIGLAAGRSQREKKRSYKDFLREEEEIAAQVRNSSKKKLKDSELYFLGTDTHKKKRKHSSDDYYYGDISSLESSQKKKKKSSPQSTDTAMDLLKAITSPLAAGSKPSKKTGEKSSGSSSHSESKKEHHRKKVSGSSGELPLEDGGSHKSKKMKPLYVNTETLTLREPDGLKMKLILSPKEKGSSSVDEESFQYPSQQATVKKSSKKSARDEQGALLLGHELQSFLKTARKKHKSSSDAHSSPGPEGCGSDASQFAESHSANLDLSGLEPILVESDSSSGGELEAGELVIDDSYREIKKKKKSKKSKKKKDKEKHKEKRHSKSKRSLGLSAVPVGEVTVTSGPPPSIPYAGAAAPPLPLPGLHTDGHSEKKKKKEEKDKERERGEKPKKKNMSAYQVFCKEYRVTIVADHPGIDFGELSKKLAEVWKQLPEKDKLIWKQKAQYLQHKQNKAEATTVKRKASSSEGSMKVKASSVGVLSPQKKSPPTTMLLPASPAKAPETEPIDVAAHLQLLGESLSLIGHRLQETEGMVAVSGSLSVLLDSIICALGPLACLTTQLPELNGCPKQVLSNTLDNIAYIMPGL
UniProt Q9BW72: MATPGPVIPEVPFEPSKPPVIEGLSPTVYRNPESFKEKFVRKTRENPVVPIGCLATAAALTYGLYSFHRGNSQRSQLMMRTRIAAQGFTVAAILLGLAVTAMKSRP
UniProt Q9NWY4: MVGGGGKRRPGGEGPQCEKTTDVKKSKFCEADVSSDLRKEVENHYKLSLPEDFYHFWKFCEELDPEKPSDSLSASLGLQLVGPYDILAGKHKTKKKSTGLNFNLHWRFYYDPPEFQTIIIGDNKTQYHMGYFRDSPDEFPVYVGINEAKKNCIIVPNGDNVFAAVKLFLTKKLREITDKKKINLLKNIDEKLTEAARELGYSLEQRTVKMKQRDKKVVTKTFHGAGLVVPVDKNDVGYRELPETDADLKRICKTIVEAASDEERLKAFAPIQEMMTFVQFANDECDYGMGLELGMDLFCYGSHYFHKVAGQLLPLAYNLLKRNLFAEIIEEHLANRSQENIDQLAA
UniProt Q9P0W2: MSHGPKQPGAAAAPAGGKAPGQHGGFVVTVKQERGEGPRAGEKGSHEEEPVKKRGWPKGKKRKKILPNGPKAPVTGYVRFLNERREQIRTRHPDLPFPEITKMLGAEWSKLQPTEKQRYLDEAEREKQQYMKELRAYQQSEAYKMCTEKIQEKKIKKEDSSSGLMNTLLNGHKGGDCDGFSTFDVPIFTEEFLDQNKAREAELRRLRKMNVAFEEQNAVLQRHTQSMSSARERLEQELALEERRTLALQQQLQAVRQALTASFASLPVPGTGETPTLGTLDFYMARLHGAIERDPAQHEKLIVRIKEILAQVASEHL

Compound in the first assay: CC(=O)c1cnc2ccc(-c3cc(Cl)c(O)c(Cl)c3)nc2c1N[C@H]1CC[C@H](CN(C)C)CC1
In words: log2 fold change, soluble protein after heating vs DMSO (PISA); higher = thermal stabilisation; K562 cells, 10 uM, 30 min; active = over 0.2 and 3.5 SD of the protein, either way, in both replicates (recomputed). A digest of the protocol: (§1)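 Thermal stability values are relative to control samples and come from duplicates. They are expressed as log2 fold changes. For measurement, K562 cells (2×10^6 cells/mL) received 10 μM compound for 30 min, and aliquots were heated for 3 min over 48°C-58°C, pooled, and extracted at 4°C in PBS with 0.5% NP-40. Soluble protein, the supernatant after 21,000xg for 90 min, was quantified by TMTpro 16plex LC-MS/MS with equalised channel sums.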
For IBTK (UniProt Q9P2D0), the log2 fold change is inactive: -0.004.

For HOXD9 (UniProt P28356), the log2 fold change is inactive: -0.006.

For HOOK1 (UniProt Q9UJC3), the log2 fold change is inactive: -0.197.

Turning to HNRNPUL1 (UniProt M0R247), the log2 fold change was inactive: -0.259.

For HSPBAP1 (UniProt Q96EW2), the log2 fold change was inactive: 0.127.

As to HM13 (UniProt Q8TCT9), the log2 fold change was inactive: 0.005.

Consider HUWE1 isoform 2 (UniProt Q7Z6Z7), for which the log2 fold change is inactive: 0.045.

As for HNRNPA1 (UniProt H0YH80), the log2 fold change was inactive: 0.043.

HLA-E (UniProt P13747): the log2 fold change is inactive: -0.02.

In the case of HOMER2 (UniProt Q9NSB8), the log2 fold change was inactive: 0.062.

HTR1F (UniProt P30939): the log2 fold change was inactive: -0.047.

Compound in the next assay: CC(C)(C)Cn1c(N)nc2ccc(-c3[nH]c(C(C)(C)C)nc3-c3ccc(F)cc3)nc21 [ralimetinib]
The description is as above. An outline of the steps:
as §1
With IBTK (UniProt Q9P2D0), the log2 fold change is inactive: 0.073.

Consider HPS4 isoform 4 (UniProt Q9NQG7), for which the log2 fold change was inactive: -0.176.

For the target HIGD1A isoform 2 (UniProt Q9Y241), the log2 fold change was inactive: -0.004.

Turning to HM13 (UniProt Q8TCT9), the log2 fold change was inactive: -0.034.

On to HNRNPA1 (UniProt H0YH80), for which the log2 fold change was inactive: 0.185.

With ID1 (UniProt P41134), the log2 fold change is inactive: -0.009.

HNRNPK isoform 3 (UniProt P61978): the log2 fold change was inactive: 0.03.

Compound in a further assay: CC(C)(O)CC(=O)NCCn1ccc2ncnc(Nc3ccc(Oc4cccc(C(F)(F)F)c4)c(Cl)c3)c21
The description is as above. A digest of the protocol:
as §1
Take HMGXB4 (UniProt Q9UGU5): the log2 fold change was inactive: 0.18.

For the target IBTK (UniProt Q9P2D0), the log2 fold change was inactive: 0.087.

Regarding HOOK2 (UniProt Q96ED9), the log2 fold change is inactive: 0.031.

Take HOOK1 (UniProt Q9UJC3): the log2 fold change is inactive: 0.087.

Turning to HUWE1, A0A087X1S3, the log2 fold change was inactive: 0.026.

In the case of ICE1 (UniProt Q9Y2F5), the log2 fold change was inactive: 0.006.

As for HNRNPR (UniProt O43390), the log2 fold change was inactive: 0.141.

Regarding HIGD2A (UniProt Q9BW72), the log2 fold change was inactive: -0.061.

For HOXB4 (UniProt P17483), the log2 fold change was inactive: -0.008.

On to HPF1 (UniProt Q9NWY4), for which the log2 fold change is inactive: 0.13.

Consider HM13 (UniProt Q8TCT9), for which the log2 fold change was inactive: -0.004.

For HNRNPA1 (UniProt H0YH80), the log2 fold change was inactive: 0.272.

For ID1 (UniProt P41134), the log2 fold change was inactive: -0.235.

Consider HLA-E (UniProt P13747), for which the log2 fold change was inactive: 0.025.

Regarding HNRNPK isoform 3 (UniProt P61978), the log2 fold change was inactive: 0.087.

Take HOMER2 (UniProt Q9NSB8): the log2 fold change is inactive: 0.18.

Consider HSPBP1 (UniProt Q9NZL4), for which the log2 fold change was inactive: -0.028.

Compound in another assay: CC(C)C1=C2N=C(C=C(N2N=C1)NCC3=CC=CC=C3)NCCCCCCN
Described as above. An outline of the steps: as §1
Regarding HPS4 isoform 4 (UniProt Q9NQG7), the log2 fold change was inactive: -0.025.

Turning to HOXD9 (UniProt P28356), the log2 fold change is inactive: -0.125.

Turning to HUWE1, A0A087X1S3, the log2 fold change was inactive: -0.141.

In the case of HNRNPUL1 (UniProt M0R247), the log2 fold change was inactive: 0.121.

In the case of HSPBAP1 (UniProt Q96EW2), the log2 fold change was inactive: 0.011.

HIGD2A (UniProt Q9BW72): the log2 fold change is inactive: -0.051.

On to HNRNPD (UniProt D6RF44), for which the log2 fold change was inactive: 0.16.

On to ICOSLG isoform 2 (UniProt O75144), for which the log2 fold change is inactive: 0.477.

On to HOMER3 (UniProt Q9NSC5), for which the log2 fold change was inactive: 0.054.

As to HUWE1 isoform 2 (UniProt Q7Z6Z7), the log2 fold change is inactive: 0.049.

For ID1 (UniProt P41134), the log2 fold change is inactive: -0.194.

For HNRNPK isoform 3 (UniProt P61978), the log2 fold change is inactive: 0.075.

As for HNMT (UniProt P50135), the log2 fold change is inactive: 0.262.

Consider HTR1F (UniProt P30939), for which the log2 fold change is inactive: -0.028.

Compound in the next assay: CC(C)C[C@@H](C=O)NC(=O)[C@H](CC(C)C)NC(=O)[C@H](CC(C)C)NC(=O)OCc1ccccc1
The description is as above. An outline of the steps:
as §1
In the case of IBTK (UniProt Q9P2D0), the log2 fold change is inactive: 0.057.

With HPS4 isoform 4 (UniProt Q9NQG7), the log2 fold change is inactive: 0.119.

Take HIGD1A isoform 2 (UniProt Q9Y241): the log2 fold change is inactive: 0.231.

Consider HM13 (UniProt Q8TCT9), for which the log2 fold change is inactive: -0.02.

As for HNRNPA1 (UniProt H0YH80), the log2 fold change is inactive: 0.024.

As for ID1 (UniProt P41134), the log2 fold change is inactive: -0.187.

HNRNPK isoform 3 (UniProt P61978): the log2 fold change is inactive: 0.041.

Compound in a further assay: CC(C)N(C[C@H]1O[C@@H](n2cnc3c(N)ncnc32)[C@H](O)[C@@H]1O)[C@H]1C[C@@H](CCc2nc3cc(C(C)(C)C)ccc3[nH]2)C1 [pinometostat]
The assay is described as above. An outline of the steps: as §1
With IBTK (UniProt Q9P2D0), the log2 fold change was inactive: 0.33.

For the target HPS4 isoform 4 (UniProt Q9NQG7), the log2 fold change was inactive: 0.024.

Turning to HOOK2 (UniProt Q96ED9), the log2 fold change was inactive: -0.003.

For HMG20B (UniProt Q9P0W2), the log2 fold change is inactive: 0.243.

As for HIGD1A isoform 2 (UniProt Q9Y241), the log2 fold change was inactive: 0.019.

In the case of HUWE1, A0A087X1S3, the log2 fold change is inactive: 0.042.

On to HNRNPUL1 (UniProt M0R247), for which the log2 fold change was inactive: -0.025.

Turning to HSPBAP1 (UniProt Q96EW2), the log2 fold change is inactive: -0.128.

In the case of ICE1 (UniProt Q9Y2F5), the log2 fold change was inactive: 0.071.

For the target HNRNPR (UniProt O43390), the log2 fold change is inactive: 0.015.

On to HIGD2A (UniProt Q9BW72), for which the log2 fold change is inactive: 0.187.

Regarding HMBS (UniProt F5H226), the log2 fold change is inactive: 0.191.

As for HM13 (UniProt Q8TCT9), the log2 fold change is inactive: 0.007.

HNRNPA1 (UniProt H0YH80): the log2 fold change was inactive: 0.345.

Regarding HLA-E (UniProt P13747), the log2 fold change was inactive: 0.076.

In the case of HNRNPK isoform 3 (UniProt P61978), the log2 fold change is inactive: -0.021.

Take HTR1F (UniProt P30939): the log2 fold change is inactive: -0.071.
